Legend:
Conditions in all cases: whole synthesis, 220 nm, scale of the general procedure 200 mg resin, 0.66 mmol/g
[1] = general procedure: Fmoc solid-phase peptide synthesis; Fmoc-Rink-ChemMatrix; DIPCDI/Oxyma
[2] = general procedure: Fmoc solid-phase peptide synthesis; PAC-ChemMatrix; DIPCDI/Oxyma
[3] = general procedure: Fmoc solid-phase peptide synthesis; ChemMatrix resin (0.69 mmol/g) with Fmoc-Rink-amide linker or PAC linker; DIPCDI/Oxyma

Substance | final HPLC purity [1] [%] | further results
VWNQPVRGFKVYE-KKLFKKILKKL-NH2 | >99 | 
KKLFKKILKKL-RINSAKDDAAGLQIA-OH |  | final HPLC purity [2]: >99%
KKLFKKILKYL-RINSAKDDAAGLQIA-OH |  | final HPLC purity [2]: >99%
KKLFKKILKYL-FKLFKKILKVL-NH2 | >99 | 
KKLfKKILKYL-FKLFKKILKVL-NH2 | >99 | 
VWNQPVRGFKVYE-KKVVFWVKFK-NH2 | >99 | 
Ac-RINSAKDDAAGLQIA -KKLfKKILKK(COC3H7)L-NH2 |  | final HPLC purity [3]: 97%
FKLFKKILKVL-KKLFKKILKKL-NH2 | >99 | 
KKVVFWVKFK-YGIHTH-NH2 |  | final HPLC purity [3]: >99%
YGIHTH-KKVVFWVKFK-NH2 | >99 | 
KKLFKKILKYL-VWNQPVRGFKVYE-OH |  | final HPLC purity [2]: >99%
KKLfKKILKYL-VWNQPVRGFKVYE-OH |  | final HPLC purity [2]: >99%
KKVVFWVKFK-RINSAKDDAAGLQIA-OH |  | final HPLC purity [2]: >99%
Ac-KKLFKKIK(COC3H7)KYL-RINSAKDDAAGLQIA -OH |  | final HPLC purity [3]: 96%
KKVVFWVKFK-FKLFKKILKVL-NH2 | >99 | 
Ac-KKLfKKILKK(COC 3H7)L-YGIHTH-NH2 |  | final HPLC purity [3]: >99%
Ac-YGIHTH-KKLfKKILKK(COC 3H7)L-NH2 |  | final HPLC purity [3]: >99%
KKLFKKILKKL-FKLFKKILKVL-NH2 | >99 | 
KKVVFWVKFK-VWNQPVRGFKVYE-OH |  | final HPLC purity [2]: >99%
VWNQPVRGFKVYE-KKLfKKILKYL-NH2 | >99 | 
FKLFKKILKVL-KKVVFWVKFK-NH2 | >99 | 
RINSAKDDAAGLQIA-KKVVFWVKFK-NH2 | >99 | 
RINSAKDDAAGLQIA-KKLFKKILKKL-NH2 |  | final HPLC purity [3]: >99%
Ac-KKLfKKILKK(COC 3H7)L-RINSAKDDAAGLQIA-OH |  | final HPLC purity [3]: >99%
VWNQPVRGFKVYE-KKLFKKILKYL-NH2 | >99 | 
FKLFKKILKVL-KKLfKKILKYL-NH2 | >99 | 
RINSAKDDAAGLQIA-KKLFKKILKYL-NH2 | >99 | 
KKLFKKILKKL-VWNQPVRGFKVYE-OH |  | final HPLC purity [2]: >99%
FKLFKKILKVL-KKLFKKILKYL-NH2 | >99 | 
Ac-RINSAKDDAAGLQIA -KKLFKKIK(COC 3H7)KYL-NH2 |  | final HPLC purity [3]: 96%
